PubChem BioAssay AID1671195 | Yale University – 2021
Test: 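Regulators of LDL receptor activity judged by labelled LDL uptake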 (primary screen). System: human Huh7 hepatoma cells. Knock-down reagent: siRNA pool against human genes, 18 nM. Time to read-out: about 2 to 2.5 days of knockdown, then 8 h LDL uptake. Treatment: DiI-labelled LDL at 30 µg/ml for 8 h, in lipoprotein-deficient serum medium. Measurement: 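Fluorescent LDL signal imaged in cells, scaled to the plate median, robust z-score for each replicate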. Reading the numbers: robust z-score: higher = more LDL uptake after knockdown. Call rule: 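a gene counts as active if at least two replicate z-scores exceed ±2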.
Shown is a random part of about 22,000 deposited reagents. About 1,510 of them (6.9%) count as active. 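Active includes knockdowns raising or lowering LDL uptake; positive z-scores mean more uptake, negative mean less.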 Unmarked entries are inactive. The numbers tell different reagents against one gene apart.

CA1 (carbonic anhydrase 1)
- robust z-score, replicate 1: 1.61
- robust z-score, replicate 2: 1.56
- robust z-score, replicate 3: 1.84

LOC391800 (retired record)
- robust z-score, replicate 1: 0.564
- robust z-score, replicate 2: 0.358
- robust z-score, replicate 3: 0.147

MS4A7 (membrane spanning 4-domains A7)
- robust z-score, replicate 1: 0.885
- robust z-score, replicate 2: 0.0285
- robust z-score, replicate 3: 0.38

LOC441570 (retired record)
- robust z-score, replicate 1: 0.00496
- robust z-score, replicate 2: 0.121
- robust z-score, replicate 3: 0.307

KIN (Kin17 DNA and RNA binding protein)
- robust z-score, replicate 1: -0.089
- robust z-score, replicate 2: 2.06
- robust z-score, replicate 3: 0.00213

KRTAP21-2 (keratin associated protein 21-2)
- robust z-score, replicate 1: -0.645
- robust z-score, replicate 2: -0.805
- robust z-score, replicate 3: -0.466

RECQL (RecQ like helicase)
- robust z-score, replicate 1: -0.574
- robust z-score, replicate 2: 0.21
- robust z-score, replicate 3: -0.386

CDX4 (caudal type homeobox 4)
- robust z-score, replicate 1: -1.41
- robust z-score, replicate 2: -1.06
- robust z-score, replicate 3: -0.378

SLC2A4RG (SLC2A4 regulator)
- robust z-score, replicate 1: -0.094
- robust z-score, replicate 2: -0.248
- robust z-score, replicate 3: -0.298

TAC1 (tachykinin precursor 1)
- robust z-score, replicate 1: 0.00632
- robust z-score, replicate 2: -0.494
- robust z-score, replicate 3: 0.218

PALM2AKAP2 (PALM2 and AKAP2 fusion) #1
- robust z-score, replicate 1: 1.63
- robust z-score, replicate 2: 0.326
- robust z-score, replicate 3: 1.25

PALM2AKAP2 (PALM2 and AKAP2 fusion) #2
- robust z-score, replicate 1: 0.27
- robust z-score, replicate 2: -0.914
- robust z-score, replicate 3: -0.676

LOC388429 (retired record)
- robust z-score, replicate 1: -0.157
- robust z-score, replicate 2: -0.484
- robust z-score, replicate 3: 0.533

NHLH1 (nescient helix-loop-helix 1)
- robust z-score, replicate 1: 0.289
- robust z-score, replicate 2: 0.0729
- robust z-score, replicate 3: 0.093

SLAMF6 (SLAM family member 6)
- robust z-score, replicate 1: 1.49
- robust z-score, replicate 2: 2.56
- robust z-score, replicate 3: 0.412

TICAM1 (TIR domain containing adaptor molecule 1)
- robust z-score, replicate 1: -1.11
- robust z-score, replicate 2: -0.652
- robust z-score, replicate 3: -1.37

An excerpt from above, limited to “robust z-score, replicate 1”.
SLC2A4RG (SLC2A4 regulator): -0.094
TAC1 (tachykinin precursor 1): 0.00632
